According to patent US4910296A (priority 1980, dated 1990):

Test: general procedure: solution-phase peptide synthesis; mixed anhydride (isobutyloxycarbonyl chloride) for stepwise couplings; dicyclohe
Settings: coupling step

| Substance | step yield | difficulty met |
| --- | --- | --- |
| Ddz-Lys(Z)-Lys(Z)-Glu(OBu^t)-Val-Val-Glu(OBu^6)-OMe | 91% |  |
| Ddz-Glu(OBu^t)-Lys(Z)-Glu(OBu^t)Val-Val-Glu(OBu^t)OMe | 87% |  |
| Ddz-Lys(Z)-Glu(OBu^t)-Val-Val-Glu(OBu^t)-Glu(OBu^t)-AlaOBzl | 58% |  |
| Ddz-Lys(Z)-Glu(OBu^t)-Val-Val-Glu(OBu^t)-Glu(OBu^t)OBu^t | 52% |  |
| Ddz-Lys(Z)Glu(OBu^t)-Lys(Z)-Glu(OBu^t)-Val-Val-Glu(OBu^t)OMe | 60% |  |
| Ddz-Asp(OBu^t)-Ala-Ala-Val-Asp(OBu^t)-OBzl |  | (f) Ddz-(2-6)-OBzl, Ddz-Asp(OBu^t)-Ala-Ala-Val-Asp(OBu^t)-OBzl: In the conventional reaction of 11.6 mmol of Ddz-Asp-(OBu^t)-OH with 5.8 mmol of Ddz-(3-6)-OBzl, the poor solubility of the amine compon |
